According to US12606541B2, “PPARg modulators and methods of use” (Eisai R&D Management Co., Ltd., priority 2020, dated 2026):
Some entries share one result that the patent states for a list of compounds. At least one compound was matched to its structure with a doubt left.

Each compound was assayed against T1, His6-TEV-PPARγ-(234-505) (Homo sapiens, UniProt P37231) (assay: TR-FRET Assay to Measure Co-R Peptide Recruitment to PPARγ).
T1 construct: The His6-TEV-PPARγ-(234-505) protein for assay was expressed and purified; TEV cleavage site (N); made in house
T1 sequence (P37231 234-505): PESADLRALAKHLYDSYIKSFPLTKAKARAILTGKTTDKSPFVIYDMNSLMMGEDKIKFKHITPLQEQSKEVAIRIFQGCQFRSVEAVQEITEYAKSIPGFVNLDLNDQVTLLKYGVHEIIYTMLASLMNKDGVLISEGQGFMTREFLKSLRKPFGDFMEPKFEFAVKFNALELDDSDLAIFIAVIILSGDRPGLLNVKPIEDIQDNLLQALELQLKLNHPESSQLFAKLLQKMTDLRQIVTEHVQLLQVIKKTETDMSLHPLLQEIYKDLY
Type: biochemical
Protocol: TR-FRET Assay to Measure Co—R Peptide Recruitment to PPARγ
The 2× detection solution contained anti-6×His-Terbium antibody (CisBio) and FITC labeled Co—R peptide (SMRT-ID2 from New England Peptide) at final concentrations of 5 and 200 nM respectively.
In these assay plates, the positive control in column 24 contained 500 nM (final) T0070907 and the negative control in column 23 contained an identical volume of DMSO. Then, 5 μL of 2+ protein working stock or controls were added to the plate and incubated for 20 minutes at room temperature. Reagents additions were performed with either a Combi (Thermo) or Mantis (Formulatory) pipetting device. The incubation was followed by addition of 5 μL of the 2× detection solution. Plates were covered, centrifuged, and incubated for an additional hour. The TR-FRET data was recorded with an Envision plate reader (Perkin Elmer), using settings recommended by Thermo Fisher. The TR-FRET signal of the positive and negative control's recruitment of FITC-Co—R peptide was used to normalize the TR-FRET signal to percent response and to determine the assay Z prime. Experiments were performed in triplicate and analyzed in GraphPad Prism 7.

SMILES	AC50
COc1cc(-c2cc(C(=O)N3C[C@@H]4C(C(=O)NCc5cccc(Cl)c5)[C@@H]4C3)n[nH]2)c(F)cn1 (some centres unmarked)	> 1000 nM
COc1cc(-c2cc(C(=O)N3[C@@H]4CC[C@H]3CC(C(=O)N(C)C3CCC(O)(C(F)(F)F)CC3)C4)n[nH]2)c(F)cn1 (some centres unmarked)	> 1000 nM
COc1cc(-c2cc(C(=O)N3C[C@H]4C[C@@H](C3)C4C(=O)NCc3cccc(Cl)c3)n[nH]2)c(F)cn1 (some centres unmarked)	> 1000 nM
COc1cc(-c2cc(C(=O)N3C[C@@H]4C[C@H]3CC4C(=O)NC3CCC(O)(C(F)(F)F)CC3)n[nH]2)c(F)cn1 (relative stereo)	> 1000 nM
COc1cc(-c2cc(C(=O)N3CCC(C(=O)NCc4cccc(Cl)c4)C(F)(F)C3)n[nH]2)c(Cl)cn1 (centres unmarked)	> 1000 nM
COc1cc(-c2cc(C(=O)N3CCC4(CC3)CC(C(=O)N[C@H]3CC[C@@](O)(C(F)(F)F)CC3)C4)n[nH]2)c(F)cn1	> 1000 nM
CCOc1cc(-c2cc(C(=O)N3CCC(C(=O)NC4CCC(O)(C(F)(F)F)CC4)CC34CC4)n[nH]2)c(F)cn1 (centres unmarked)	> 1000 nM
COc1cc(-c2cc(C(=O)N3C[C@H]4CC[C@@H](C3)C4C(=O)NCc3cccc(Cl)c3)n[nH]2)c(F)cn1 (some centres unmarked)	> 1000 nM
